Data from PMC11811183.
No constants are given. Whether binding was seen depends on the method and setting. Binding seen in cells or lysates may run through a third protein. Some entries that bind do so weakly or less than the wild type.

Amino acid sequences for entries named in this document (tags omitted).
UniProt Q8VBV4: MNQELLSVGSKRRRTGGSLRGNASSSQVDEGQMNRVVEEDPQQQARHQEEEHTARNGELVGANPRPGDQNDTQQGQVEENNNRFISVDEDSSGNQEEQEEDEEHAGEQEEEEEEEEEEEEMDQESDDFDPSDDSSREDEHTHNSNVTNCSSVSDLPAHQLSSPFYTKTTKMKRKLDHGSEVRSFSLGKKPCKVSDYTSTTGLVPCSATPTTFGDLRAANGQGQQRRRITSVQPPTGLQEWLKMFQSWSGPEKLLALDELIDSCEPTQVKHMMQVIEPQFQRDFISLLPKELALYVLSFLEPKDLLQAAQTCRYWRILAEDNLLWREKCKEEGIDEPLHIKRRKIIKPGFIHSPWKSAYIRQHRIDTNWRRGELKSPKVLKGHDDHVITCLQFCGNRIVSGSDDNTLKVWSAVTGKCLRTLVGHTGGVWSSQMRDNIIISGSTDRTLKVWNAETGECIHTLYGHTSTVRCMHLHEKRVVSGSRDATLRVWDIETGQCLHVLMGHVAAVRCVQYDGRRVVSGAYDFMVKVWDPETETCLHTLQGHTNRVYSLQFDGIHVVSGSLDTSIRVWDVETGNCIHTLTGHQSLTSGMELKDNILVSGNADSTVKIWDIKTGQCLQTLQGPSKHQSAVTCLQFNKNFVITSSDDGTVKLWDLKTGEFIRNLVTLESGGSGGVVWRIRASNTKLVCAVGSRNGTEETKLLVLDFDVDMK
UniProt Q8BSK8: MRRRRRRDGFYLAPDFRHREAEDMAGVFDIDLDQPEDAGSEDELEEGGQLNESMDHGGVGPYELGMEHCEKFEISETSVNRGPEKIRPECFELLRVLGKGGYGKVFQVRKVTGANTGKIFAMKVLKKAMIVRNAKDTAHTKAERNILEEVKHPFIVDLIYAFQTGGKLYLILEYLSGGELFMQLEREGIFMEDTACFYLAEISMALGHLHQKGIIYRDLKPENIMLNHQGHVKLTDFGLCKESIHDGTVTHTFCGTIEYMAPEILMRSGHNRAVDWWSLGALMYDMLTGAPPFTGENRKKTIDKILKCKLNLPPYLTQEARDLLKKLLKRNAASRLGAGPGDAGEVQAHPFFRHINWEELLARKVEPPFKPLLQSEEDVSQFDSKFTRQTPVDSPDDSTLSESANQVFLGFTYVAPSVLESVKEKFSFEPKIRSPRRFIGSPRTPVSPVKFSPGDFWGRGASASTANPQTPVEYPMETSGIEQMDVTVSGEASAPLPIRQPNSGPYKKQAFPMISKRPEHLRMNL

Columns and labels:
[1] = biological target: FBXW7 (endogenous) (mouse (endogenous in brown fat and brown adipocytes)) (UniProt Q8VBV4); experiment: co-IP; endogenous, brown fat tissue of mice; anti-FBXW7 antibody, anti-S6K1 antibody or IgG with protein A/G beads overnight at 4 °C
[2] = biological target: FBXW7 (endogenous) (mouse (endogenous in brown fat and brown adipocytes)) (UniProt Q8VBV4); experiment: co-IP; endogenous, brown adipocytes (Appendix Fig. S11H)
[3] = biological target: N-terminal Flag-tagged full-length FBXW7 (UniProt Q8VBV4); experiment: co-IP; 293T cells with Flag-FBXW7 and HA-S6K1; IP lysis buffer 25 mM Tris-HCl, 150 mM NaCl, 1% NP-40; anti-Flag-tag antibody, anti-HA-tag antibody or IgG with protein A/G beads overnight at 4 °C

Row | Substance | binding [1] | binding [2] | binding [3]
1 | S6K1 (endogenous) (from UniProt Q8BSK8 1-525) | binds | binds | –
2 | HA-tagged S6K1 (from UniProt Q8BSK8 1-525) | – | – | binds
